Results are given in words; binding and its absence hold for the method and conditions named. Binding seen in cells or lysates may run through a third protein. A yes stands for co-enrichment or nearness to the bait. Other partners may have been found. For some assays here: Where a sequence is shown, tags or fusion partners need not be part of it.
Tests used:
[1] = molecular target: Sgo1-4R-6His-3Flag (Sgo1-K56R K64R K70R K85R) (S. cerevisiae) (UniProt Q08490); assay: affinity purification with mass spectrometry; Sgo1-6His-3Flag immunoprecipitated with anti-Flag Protein G Dynabeads from benzonase-treated lysates of benomyl-arrested cells grown at 30°C (wild type, siz1Δ siz2Δ, sgo1-4R, sgo1-3A); label-free quantitative MS in triplicate
[2] = molecular target: T1, Sgo1-6His-3Flag (S. cerevisiae) (UniProt Q08490); assay: as above
T1 sequence: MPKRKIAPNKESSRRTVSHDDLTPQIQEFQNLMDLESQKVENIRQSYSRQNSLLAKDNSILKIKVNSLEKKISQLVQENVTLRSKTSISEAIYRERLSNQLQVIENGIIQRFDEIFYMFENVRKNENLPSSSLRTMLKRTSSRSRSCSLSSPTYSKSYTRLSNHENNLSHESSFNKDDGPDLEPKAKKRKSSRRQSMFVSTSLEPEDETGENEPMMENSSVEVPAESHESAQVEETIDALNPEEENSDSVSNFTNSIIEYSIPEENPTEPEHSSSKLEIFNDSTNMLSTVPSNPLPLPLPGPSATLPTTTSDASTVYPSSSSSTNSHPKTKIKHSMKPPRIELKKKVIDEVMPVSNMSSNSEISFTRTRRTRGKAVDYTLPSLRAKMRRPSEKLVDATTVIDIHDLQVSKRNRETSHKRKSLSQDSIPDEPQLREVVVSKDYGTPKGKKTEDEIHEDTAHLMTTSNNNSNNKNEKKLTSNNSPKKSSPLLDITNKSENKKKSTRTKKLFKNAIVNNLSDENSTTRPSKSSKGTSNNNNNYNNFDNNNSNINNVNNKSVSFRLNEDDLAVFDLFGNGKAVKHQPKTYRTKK

binding [1]: binds
binding [2]: binds
B1: Brn1 (endogenous) (protein, UniProt P38170 1-754)
chain: MTTQLRYENNDDDERVEYNLFTNRSTMMANFEEWIKMATDNKINSRNSWNFALIDYFYDLDVLKDGENNINFQKASATLDGCIKIYSSRVDSVTTETGKLLSGLAQRKTNGASNGDDSNGGNGEGLGGDSDEANIEIDPLTGMPISNDPDVNNTRRRVYNRVLETTLVEFETIKMKELDQELIIDPLFKKALVDFDEGGAKSLLLNTLNIDNTARVIFDASIKDTQNVGQGKLQRKEEELIERDSLVDDENEPSQSLISTRNDSTVNDSVISAPSMEDEILSLGMDFIKFDQIAVCEISGSIEQLRNVVEDINQAKDFIENVNNRFDNFLTEEELQAAVPDNAEDDSDGFDMGMQQELCYPDENHDNTSHDEQDDDNVNSTTGSIFEKDLMAYFDENLNRNWRGREHWKVRNFKKANLVNKESDLLEETRTTIGDTTDKNTTDDKSMDTKKKHKQKKVLEIDFFKTDDSFEDKVFASKGRTKIDMPIKNRKNDTHYLLPDDFHFSTDRITRLFIKPGQKMSLFSHRKHTRGDVSSGLFEKSTVSANHSNNDIPTIADEHFWADNYERKEQEEKEKEQSKEVGDVVGGALDNPFEDDMDGVDFNQAFEGTDDNEEASVKLDLQDDEDHKFPIRENKVTYSRVSKKVDVRRLKKNVWRSINNLIQEHDSRKNREQSSNDSETHTEDESTKELKFSDIIQGISKMYSDDTLKDISTSFCFICLLHLANEHGLQITHTENYNDLIVNYEDLATTQAAS

— paper PMC8094117
